Results are given in words; binding and its absence hold for the method and conditions named. In cells and extracts the contact can be indirect. Some binding calls cover weakened binding; strength is not graded here.
T1: Recombinant mouse PEDF (pigment epithelium-derived factor) (mouse) (UniProt P97298)
T1 sequence: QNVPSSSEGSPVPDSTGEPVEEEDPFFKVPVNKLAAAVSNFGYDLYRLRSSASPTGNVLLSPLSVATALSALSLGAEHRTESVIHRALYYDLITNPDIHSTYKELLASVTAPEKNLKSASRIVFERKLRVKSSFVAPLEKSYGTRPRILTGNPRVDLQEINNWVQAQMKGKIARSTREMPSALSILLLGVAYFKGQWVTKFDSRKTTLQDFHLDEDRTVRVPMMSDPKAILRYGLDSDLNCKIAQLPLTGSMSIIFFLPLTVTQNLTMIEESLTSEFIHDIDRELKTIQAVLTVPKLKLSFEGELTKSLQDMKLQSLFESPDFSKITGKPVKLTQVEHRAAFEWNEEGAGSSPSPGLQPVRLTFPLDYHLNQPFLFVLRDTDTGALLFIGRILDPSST

T2: PEDF receptor (PEDF-R) (mouse (endogenous in MC3T3-E1)) (UniProt Q8BJ56)
T2 sequence: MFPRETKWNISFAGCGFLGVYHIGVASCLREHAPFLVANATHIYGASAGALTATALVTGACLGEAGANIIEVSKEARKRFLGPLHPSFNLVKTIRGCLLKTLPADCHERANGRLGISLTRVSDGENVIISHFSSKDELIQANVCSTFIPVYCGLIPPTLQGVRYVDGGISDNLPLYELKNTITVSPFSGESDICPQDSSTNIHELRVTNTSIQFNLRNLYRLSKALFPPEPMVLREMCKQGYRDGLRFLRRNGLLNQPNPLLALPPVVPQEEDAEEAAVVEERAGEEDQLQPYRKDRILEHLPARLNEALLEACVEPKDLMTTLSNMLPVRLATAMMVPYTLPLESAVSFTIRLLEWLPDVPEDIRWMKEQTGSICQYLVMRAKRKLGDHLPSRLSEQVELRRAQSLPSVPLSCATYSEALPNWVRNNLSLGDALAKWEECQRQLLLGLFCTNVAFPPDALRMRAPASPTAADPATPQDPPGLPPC


Experiments:
[1] = biological target: T1, Recombinant mouse PEDF (pigment epithelium-derived factor) (mouse); assay: co-IP; MC3T3-E1 cells treated with rPEDF (10 nmol/L; 12 h by the legend, 24 h by the text); membrane protein extracts immunoprecipitated with anti-PEDF antibody, blotted for PEDF-R; only the target purified
[2] = biological target: T2, PEDF receptor (PEDF-R) (mouse (endogenous in MC3T3-E1)); assay: co-IP; MC3T3-E1 cells treated with rPEDF (10 nmol/L; 12 h by the legend, 24 h by the text); membrane protein extracts immunoprecipitated with anti-PEDF-R antibody, blotted for PEDF; only the binder purified

| Binder | binding [1] | binding [2] |
| --- | --- | --- |
| PEDF receptor (PEDF-R) (receptor, UniProt Q8BJ56 1-486) MFPRETKWNISFAGCGFLGVYHIGVASCLREHAPFLVANATHIYGASAGALTATALVTGACLGEAGANIIEVSKEARKRFLGPLHPSFNLVKTIRGCLLKTLPADCHERANGRLGISLTRVSDGENVIISHFSSKDELIQANVCSTFIPVYCGLIPPTLQGVRYVDGGISDNLPLYELKNTITVSPFSGESDICPQDSSTNIHELRVTNTSIQFNLRNLYRLSKALFPPEPMVLREMCKQGYRDGLRFLRRNGLLNQPNPLLALPPVVPQEEDAEEAAVVEERAGEEDQLQPYRKDRILEHLPARLNEALLEACVEPKDLMTTLSNMLPVRLATAMMVPYTLPLESAVSFTIRLLEWLPDVPEDIRWMKEQTGSICQYLVMRAKRKLGDHLPSRLSEQVELRRAQSLPSVPLSCATYSEALPNWVRNNLSLGDALAKWEECQRQLLLGLFCTNVAFPPDALRMRAPASPTAADPATPQDPPGLPPC | binds |  |
| Recombinant mouse PEDF (pigment epithelium-derived factor) (ligand, UniProt P97298 20-417) QNVPSSSEGSPVPDSTGEPVEEEDPFFKVPVNKLAAAVSNFGYDLYRLRSSASPTGNVLLSPLSVATALSALSLGAEHRTESVIHRALYYDLITNPDIHSTYKELLASVTAPEKNLKSASRIVFERKLRVKSSFVAPLEKSYGTRPRILTGNPRVDLQEINNWVQAQMKGKIARSTREMPSALSILLLGVAYFKGQWVTKFDSRKTTLQDFHLDEDRTVRVPMMSDPKAILRYGLDSDLNCKIAQLPLTGSMSIIFFLPLTVTQNLTMIEESLTSEFIHDIDRELKTIQAVLTVPKLKLSFEGELTKSLQDMKLQSLFESPDFSKITGKPVKLTQVEHRAAFEWNEEGAGSSPSPGLQPVRLTFPLDYHLNQPFLFVLRDTDTGALLFIGRILDPSST |  | binds |

From paper PMC4881552
